In article PMC6028546, “Control of mitotic chromosome condensation by the fission yeast transcription factor Zas1” one finds binding data, which are given here for 2 molecules.

These are yes or no findings as the source states them, for the method shown. In cells and extracts the contact can be indirect. Some entries that bind do so weakly or less than the wild type. Sequences can lack the tags named with a protein.

The assay addresses T1, Cnd2-PK6 (condensin kleisin subunit Cnd2 with a PK6 tag) (S. pombe) (UniProt Q9Y7R3).
T1 sequence: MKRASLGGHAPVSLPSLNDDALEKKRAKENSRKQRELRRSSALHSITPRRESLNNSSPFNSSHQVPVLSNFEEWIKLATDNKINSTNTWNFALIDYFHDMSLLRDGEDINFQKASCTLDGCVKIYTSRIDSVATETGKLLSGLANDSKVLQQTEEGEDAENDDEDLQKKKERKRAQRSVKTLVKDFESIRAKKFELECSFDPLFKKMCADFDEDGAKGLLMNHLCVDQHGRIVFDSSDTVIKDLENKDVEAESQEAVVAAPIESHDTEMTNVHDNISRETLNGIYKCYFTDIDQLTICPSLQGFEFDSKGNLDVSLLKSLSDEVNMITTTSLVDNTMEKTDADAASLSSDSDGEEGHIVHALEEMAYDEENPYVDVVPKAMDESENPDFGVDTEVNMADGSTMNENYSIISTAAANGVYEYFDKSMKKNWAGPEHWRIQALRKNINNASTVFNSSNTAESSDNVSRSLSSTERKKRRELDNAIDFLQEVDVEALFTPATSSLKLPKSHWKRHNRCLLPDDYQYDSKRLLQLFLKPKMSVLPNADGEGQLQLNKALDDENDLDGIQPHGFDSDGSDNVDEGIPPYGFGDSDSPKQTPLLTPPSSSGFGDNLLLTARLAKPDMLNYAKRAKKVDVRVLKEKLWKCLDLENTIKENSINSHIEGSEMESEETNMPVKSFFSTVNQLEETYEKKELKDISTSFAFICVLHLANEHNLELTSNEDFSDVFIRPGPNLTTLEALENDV
In words: co-IP; Cnd2-PK6 precipitated with anti-V5 antibody and protein A Dynabeads from S. pombe lysates (zas1+ or zas1-Δaj3; 150 mM NaCl, 0.1% NP-40, DNase I); SDS-PAGE, silver staining.

B1: Cnd3 (condensin HEAT-repeat subunit) (protein, UniProt Q10429 1-875)
chain: MSCIQIISSSQTSIAGHRKLCNKLFTLRTQEGFETDILRALNIILTVKKGNSNADRVLRFLVTFVNYLQQKDPEIDIVQPILKHILRGLDAKDKTVRYRCCQIIARVVNCVKEIDDDLYNTLKEKLLSRVLDRESIVRLEAVVALSRLQEDTGDEENDVRNILLFLLQNDPSSEVRRSVLLNIEVSNSTLPFILERARDVDAANRKCVYARVLPKIGDFRYLSIKKRVRILKWGLNDRDESVEKAAADMLAYQWIENADNNLLELLERLDVSNNSDVAVLAIKKFFDVRVDSLSQLEFPEQFWLELTAESSLLARTFNEICIEKNYTDLLDKMPEVVQLTYYIERQYVSLRDKSSYDESCFIIEQLLYIGLSQDMVDEIGRRKLLKSLTNSLSTMALPDSLISLHIELLRKLCSSENDFCSLLVEIITEVFEQGHSQNQTEEQGNSNAPELNKNDYEGEEITVSQKSPSPSLPPNELNEPEPDDMDGYKEAFNELRCLSYVQCLFENITSSLNENLYMVDMLKTLIIPAVRSHDLPIREKGLECLSLVCLLNADLAFENVPLYLHCYEKGSVVLKCTAIRTLTDMLIQHGKAKFTEYEDAISSILFEALGEFENAELQTLGAEAIAKLLVILHYRDELFLKPLIIQYFEPNTVDNHALRQVLGYFFPVYAFGAHENQWRIATIFCDALLSLLEIYRDLDEDDVQLSIGHIAQQMLDWTDNEKLYERKTQTGDDYIALNHNVHLHLANMIFESLPNASEGKERKFMISLLGKLKIPTDLPSSDYQRTKRKLETYESHGFTMDSTSLSILAKFERMLLQNEEARSKFEETEEERLMENAEENEHAGAEAISGEIIPDTVEANMEDEEEVYVKQEEDL
Take B1: the binding entry was “binds”.

B2: Cut3 (condensin subunit) (protein, UniProt P41004 1-1324)
chain: MSDKGIFRTSSTPSIVDVTPDRGERPRKLVRSVLESPSQKDVASIVKIEQTPSRPFFNDFLKKRITDSLNERPNLLNKFMSAQDGTPSKSTGFNERSSQLVSEFTTTEDIENCEETTQVLPPRLVVYELRLTNFKSYAGTQIVGPFHPSFSSIVGPNGSGKSNVIDALLFVFGFRASKLRQSKASALIHKSATHPSLDSCDVEITFKEVNSDFTYVDGSELTVRRTAYKNNTSKYFVNGVESSFSAVSNLLKEKGIDLNHKRFLILQGEVESIAQMKPRAISEGDDGLLEYLEDIIGTSKYKPIIEENMQELSNSDDICAEKESRLKLVLSEKAKLEDSKNSVLSFLKDENELFMKQNQLYRTILYETRNKKTLVQNLLNSLEGKLQAHLEKFEQTERDISEKNEEVKSLREKAAKVKNDCTSEKKTRQSYEQQTVKIEEQLKFLLNKEKKLKKSIEALSFEKSEAENSLSSHDIDSQKLNSEIADLSLRLQQEELSLDDIRKSLQGKTEGISNAIEEKQKAMAPALEKINQLTSEKQILQVELDMLLNKENDLINDVESSQSSLDKLRNDAEENRNILSSKLKVLSDLKGEKKDVSKNIERKKETVHNTYRNLMSNRTKLEEMKASLSSSRSRGNVLESLQRLHESDNLNGFFGRLGDLATIDEAYDVAISTACPALNHIVVDNIETGQKCVAFLRSNNLGRASFIILKELAQKNLARIQTPENVPRLFDLLRFNDQKFAPAFYNVLQNTLVAKNLEQANRIAYGKTRWRVVTLSGQLIDKSGTMTGGGTRVKKGGMSSAITSDVSPASVETCDKQVQLEDTRYRQHLSELESLNQRFTEISERIPSAELEISKLQLDVSACDRLVAGEERRILQLKSDLKSIRNNNERKRNLQNKISNMDKEVEAININNEGLVTEIKTLQDKIMEIGGIRYRIQKSKVDDLHEQLKFVKDKLNKMSFKKKKNEQRSQSFQVELSNLTSEYDTTTESIATLKTELQSLNKYVDEHKSRLREFENALWDINSSIDELVKFIEFESKQMNSVKAERIELENQIQEQRTALSEVGNNENKYLKLMSNLKLHNLTEFCDQTTMDSTFPEYSEDELSSVDKSELVSNISVLKKKTEDREVDINVLSEYRRCNKEAEKRDSDYQSELQKRTDLKKVVTDLQSQRLDEFMYGFGIISMKLKEMYQIITMGGNAELELVDSLDPFSEGVLFSVMPPKKSWKNISNLSGGEKTLSSLALVFALHNYKPTPLYVMDEIDAALDFKNVSIVANYIKERTKNAQFIVISLRSNMFELSSRLVGIYKTANMTKSVTINNKEILTD
As to B2, the binding result was “binds”.
